Results reported in patent US8298519B2, “Hair treatment compositions incorporating hair substantive polymers” (Conopco, Inc., priority 2006, dated 2012).

Assay: Uptake and substantivity of dihydroxybenzene isomers on human hair (packed hair column, gravimetric)
Details: for Substantivity on hair (%): retained on hair after 3x ethanol/water (50:50) rinse; for Uptake on hair (%): retained on hair column after initial elution, ethanol/water solution

Structure (SMILES)	Substantivity on hair (%)	Uptake on hair (%)
Oc1cccc(O)c1 [1,3 dihydroxybenzene]	17	30
Oc1ccc(O)cc1 [1,4 dihydroxybenzene]	7	33
Oc1ccccc1O [1,2 dihydroxybenzene]	88	91
